Test: general procedure: Fmoc solid-phase peptide synthesis; TentaGel S RAM, TentaGel S RAM-Lys(Boc)Fmoc, TentaGel S PHB, TentaGel S PHB Lys(Boc)Fmoc, 0.22-0.31 mmol/g; preformed Fmoc-protected HOBt esters (3 eq.)
[1] = whole synthesis, RP-HPLC, scale of the general procedure 1 g resin, 0.22-0.31 mmol/g, trifluoroacetate salt
[2] = whole synthesis, RP-HPLC 220 nm, scale of the general procedure 1 g resin, 0.22-0.31 mmol/g, trifluoroacetate salt

Row | Substance | final purity (method not given) [1] | further results
1 | H-HGDGSFSSELSTILDNLAARDFIAWLIQTKKKKKKK-NH2 (C-terminal amide) | 95% | 
2 | H-HGDGSFTDELSTILDNLAARDFIAWLIQTKKKKKKK-NH2 (C-terminal amide) | 93% | 
3 | H-HGDGSPSDELATILDALAARDFIAWLIATKITD-NH2 | 94% | 
4 | H-HGDGSFSSELATILDNLAARDFIAWLIQTKKKKKKK-NH2 (C-terminal amide) | 92% | 
5 | H-HGEGTFSDELSTILDALAARDFIAWLIATKITD-NH2 (C-terminal amide) | 96% | 
6 | H-HGDGSFTSELATILDNLAARDFIAWLIQTK-NH2 (C-terminal amide) | 94% | final HPLC purity [2]: 94%
7 | H-HGEGSFSDELKTILDALAARDFIAWLIATKITD-NH2 (C-terminal amide) | 90% | 
8 | H-HGEGSFSDELATILDALAARDFIAWLIATKITD-NH2 | 95% | 
9 | H-HGEGTFSDELATILDALAARIFIAWLIATKKKKKKK-NH2 | 91% | 
10 | H-HGDGSFSDELATILDNLAARDFIAWLIQTKITD-NH2 (C-terminal amide) | 95% | 
11 | H-HGEGSFSSELATILDALAARDFIAWLIATKITDKKKKKK-NH2 (C-terminal amide) | 97% | final HPLC purity [2]: 97%
12 | H-HGDGSFTDELKTILDNLAARDFIAWLIQTKKKKKKK-NH2 (C-terminal amide) | 94% | 
13 | H-HGDGSFSDELATILDNLAARDFIAWLIQTK-NH2 (C-terminal amide) | 91% | 
14 | H-HGEGSFSDELATILDNLAARDFIAWLIQTKITD-NH2 | 91% | 
15 | H-HGDGSFSDELKTILDNLAARDFIAWLIQTK-NH2 (C-terminal amide) | 94% | 
16 | H-HGEGTFSSELKTILDALAARDFIAWLIATKITDKKKKKK-NH2 (C-terminal amide) | 95% | 
17 | H-HGEGTFSSELSTILDALAARDFIAWLIATKITDKKKKKK-NH2 (C-terminal amide) | 90% | 
18 | H-HGEGTFSDELATILDALAARDFIAWLIATKITDKKKKKK-NH2 (C-terminal amide) | 96% | 
19 | H-HGEGTFSSELKTILDALAARDFIAWLIATKITD-NH2 | 99% | 
20 | H-HGDGSFTDELSTILDNLAARDFIAWLIQTK-NH2 (C-terminal amide) | 94% | 
21 | H-HGEGTFSDELKTILDALAARDFIAWLIATKITD-NH2 | 92% | 
22 | H-HGDGSFSDEMNTILDNLAARDFINWLIQTKITD-NH2 | 95% | final HPLC purity [2]: 96%
23 | H-HGDGSFTDELKTILDNLAARDFIAWLIQTK-NH2 (C-terminal amide) | 92% | 
24 | H-HGEGSFSSELSTILDALAARDFIAWLIATKITDKKKKKK-NH2 (C-terminal amide) | 90% | final HPLC purity (purification step, RP-HPLC, acetate salt): 97%; final HPLC purity [2]: 90%
25 | H-HGDGSFTDELATILDNLAARDFIAWLIQTK-NH2 (C-terminal amide) | 90% | 

Row | Substance | final purity (method not given) [1] | further results
26 | H-HGDGSFSSELSTILDNLAARDFIAWLIQTK-NH2 (C-terminal amide) | 97% | 
27 | H-HGEGTFSSELSTILDALAARDFIAWLIATKITD-NH2 (C-terminal amide) | 97% | 
28 | H-HGEGSFSSELATILDALAARDFIAWLIATKITD-NH2 (C-terminal amide) | 90% | final HPLC purity [2]: 90%
29 | H-HGDGSFSDELATILDNLAARDFIAWLIATKITD-NH2 | 92% | 
30 | H-HGDGSFTSELSTILDNLAARDFIAWLIQTK-NH2 (C-terminal amide) | 94% | 
31 | H-HGDGSFSDELSTILDNLAARDFIAWLIQTK-NH2 (C-terminal amide) | 94% | 
32 | H-HGDGSFTSELATILDNLAARDFIAWLIQTKKKKKKK-NH2 (C-terminal amide) | 94% | final HPLC purity [2]: 94%
33 | H-HGEGSFSSELSTILDALAARDFIAWLIATKITD-NH2 (C-terminal amide) | 96% | final HPLC purity [2]: 96%
34 | H-HGDGSFSDELATILDNLAARDFIAWLIQTKITDKKKKKK-NH2 (C-terminal amide) | 92% | 
35 | H-HGDGSFSDELNTILDNLAARDFIAWLIQTKITDKKKKKK-NH2 (C-terminal amide) | 93% | 
36 | H-HGEGTFSDELKTILDALAARDFIAWLIATKITDKKKKKK-NH2 (C-terminal amide) | 95% | 
37 | H-HGDGSFSDELKTILDNLAARDFIAWLIQTKKKKKKK-NH2 (C-terminal amide) | 93% | 
38 | H-HGEGSFSDELSTILDALAARDFIAWLIATKITDKKKKKK-NH2 | 90% | 
39 | H-HGDGSFSSELATILDNLAARDFIAWLIQTK-NH2 (C-terminal amide) | 92% | 
40 | H-HGDGSFTSELKTILDNLAARDFIAWLIQTK-NH2 (C-terminal amide) | 97% | 
41 | H-HGDGSFSDELATILDALAARDFIAWLIATKITD-NH2 | 95% | 
42 | H-HGEGTFSSELATILDALAARDFIAWLIATKITD-NH2 (C-terminal amide) | 94% | final HPLC purity [2]: 94%
43 | H-HGDGSFTSELKTILDNLAARDFIAWLIQTKKKKKKK-NH2 (C-terminal amide) | 95% | 
44 | H-HGDGSFSDELSTILDNLAARDFIAWLIQTKKKKKKK-NH2 (C-terminal amide) | 92% | 
45 | H-HGDGSFTSELSTILDNLAARDFIAWLIQTKKKKKKK-NH2 (C-terminal amide) | 94% | 
46 | H-HGEGTFSDELSTILDALAARDFIAWLIATKITDKKKKKK-NH2 (C-terminal amide) | 93% | 
47 | H-HGEGSFSDELSTILDALAARDFIAWLIATKITD-NH2 | 96% | 
48 | H-HGDGSFIDELATILDNLAARDFIAWLIQTKKKKKKK-NH2 | 95% | 
49 | H-HGEGSFSDELKTILDALAARDFIAWLIATKITDKKKKKK-NH2 (C-terminal amide) | 93% | 
50 | H-HGEGTFSSELATILDALAARDFIAWLIATKITDKKKKKK-NH2 (C-terminal amide) | 90% | final HPLC purity (purification step, RP-HPLC, chloride salt): 93%; final HPLC purity [2]: 90%

— patent publication US9580487B2 (Zealand Pharma A/S, priority 2005, dated 2017)
